# Reference: PubChem BioAssay AID504786 (Drosophila RNAi Screening Center, 2011)
# Assay: 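Fly genes required for HIF-dependent transcription when hypoxia is mimicked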 (primary screen)
# System: Drosophila S2 cells with a stable HIF luciferase reporter
# Knock-down reagent: long dsRNA against Drosophila genes, about 0.2 µg dsRNA per well of a 384-well plate
# Duration: three days of knock-down, then 20 h of DFO before reading
# Treatment: desferrioxamine (DFO) at 100 µM, an iron chelator that mimics hypoxia, for 20 h
# Detection: 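HIF reporter luminescence in cells given 100 µM DFO for 20 h, using the mouse ldh-a hypoxia-response element, scored as per-plate z-scores; higher means greater loss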
# Direction: z-score: higher = stronger loss of HIF reporter signal
# The screen tested about 21,000 reagents; below is an unselected part of those that have a named target and a result. 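Primary screen; positive scores mean lost reporter signal, so the sign may be inverted from the usual convention.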 The numbers tell different reagents against one gene apart. Names joined by + are all predicted targets of the reagent.
Gene,reagent no.,"z-score, replicate 1","z-score, replicate 2","z-score, replicate 3","z-score, replicate 4"
Ire1 (Inositol-requiring enzyme-1),1,-0.9,-0.8,,
CG5062,1,-0.3,-0.5,,
Srp54k (Signal recognition particle 54k),1,-0.7,-1.4,,
CG14883,1,-0.1,-0.3,,
CG13614,1,-0.4,-0.4,,
CG17944,1,-0.1,0.1,,
GatC + PolG2,1,-0.2,-0.1,,
CG4820,1,-0.3,-0.1,,
CG14841,1,-0.1,-0.6,,
Acp76A (Accessory gland protein 76A),1,-0.3,0.1,,
CG7368,1,-0.3,0,1,-0.4
Cyp313a1 (Cytochrome P450 313a1),1,-0.3,-0.5,,
Zip89B (Zinc/iron regulated transporter-related protein 89B),1,-0.1,-0.7,,
pasha (partner of drosha),1,0.1,0.4,,
CG14440,1,0.3,0.1,,
CG5800,1,-0.2,2,,
Obp50e (Odorant-binding protein 50e),1,-0.4,0,,
CG18336,1,-0.4,-0.5,,
trk (trunk),1,-0.1,0.1,,
Tmf (TATA element modulatory factor),1,-0.3,-0.4,,
CG42340,1,-0.4,-0.3,-0.3,-0.4
CG42340,2,-0.3,-0.5,,
CG42340,3,0.2,0.3,,
CG4199,1,-0.2,-0.1,,
sca (scabrous),1,-0.4,-0.4,,
CG18558,1,0,0,,
CG11686,1,-0.3,-1.3,,
Muc68D (Mucin 68D),1,-0.4,-0.3,,
CG11164,1,-0.1,0,,
lola (longitudinals lacking),1,-0.3,0,,
lola (longitudinals lacking),2,1.4,0,,
lola (longitudinals lacking),3,-0.1,0.4,,
lola (longitudinals lacking),4,0.1,0,,
lola (longitudinals lacking),5,-0.2,-0.3,,
lola (longitudinals lacking),6,0.2,0.2,,
lola (longitudinals lacking),7,0.1,0.5,,
lola (longitudinals lacking),8,-0.6,-1.3,,
lola (longitudinals lacking),9,-0.1,-0.1,,
lola (longitudinals lacking),10,1.5,1.9,,
lola (longitudinals lacking),11,-0.4,-0.6,,
lola (longitudinals lacking),12,-0.5,-1,,
sls (sallimus),1,-0.3,-0.1,,
sls (sallimus),2,0.3,0.3,,
sls (sallimus),3,-0.4,-0.7,,
PolE1 (DNA polymerase epsilon subunit 1),1,-0.2,0.2,,
cDIP (Common Dpr-interacting protein),1,-0.1,0,,
CG42685,1,-0.2,-0.1,-0.2,-0.2
CG8065,1,-0.1,0.2,,
CG9068,1,-0.2,-0.5,,
Cht6 (Chitinase 6),1,-0.2,-0.5,,
Cht6 (Chitinase 6),2,-0.2,1,,
Cht6 (Chitinase 6),3,-0.3,-0.5,,
Mp (Multiplexin),1,-0.3,-0.6,,
Mp (Multiplexin),2,-0.3,-0.6,,
Mp (Multiplexin),3,-0.5,-1,,
NdufV3 (NADH:ubiquinone oxidoreductase subunit V3),1,-0.2,0.2,,
U4-U6-60K (U4-U6 small nuclear riboprotein factor 60K),1,0.3,1.1,,
nerfin-2 (nervous fingers 2),1,-0.1,-0.3,,
Mco1 (Multicopper oxidase 1),1,-0.3,-0.4,,
CG15021,1,-0.2,-0.3,,
CG13766,1,-0.3,-0.4,,
REG (Proteasome regulator gamma),1,0.3,-0.1,,
Grd (Glycine receptor),1,0,-0.2,,
CG5554,1,-0.3,-0.3,,
CG42717,1,0,-0.1,,
Yp2 (Yolk protein 2),1,-0.2,-0.3,,
CG18367,1,-0.4,-0.3,,
Acox3 (Acyl-CoA oxidase 3),1,-0.4,-0.9,,
CG9173,1,-0.4,-0.4,,
orion,1,-0.2,-0.4,,
orion,2,-0.2,-0.2,,
CG14323,1,0,-0.2,,
Cpr76Bc (Cuticular protein 76Bc),1,-0.3,-0.8,,
Muc68E (Mucin 68E),1,-0.4,-0.5,-0.7,-0.4
flw (flapwing),1,-0.2,0.2,,
flw (flapwing),2,0.6,0.3,,
barc (barricade),1,1.4,1.1,,
"FucTB (alpha1,3-fucosyltransferase B)",1,-0.2,-0.2,,
alphaCOP (Coat Protein (coatomer) alpha),1,-0.3,-0.6,,
emei,1,-0.2,-0.3,0.4,0
simj (simjang),1,1.6,1.1,,
SecS (Sec synthetase),1,-0.3,-0.5,,
CG8046,1,-0.4,-0.4,,
